Results: the supplement of paper PMC7877785
± gives the uncertainty stated by the source. Many of these values have a large error.

Test: self-splicing fitness, log relative to wild type (ln ratio); higher = more splicing; Tetrahymena group I intron in knt gene, E. coli kanamycin selection, DiMSum; sequences stand for … in CUCUCU…GGAGGGAAAAGUUAUCAGGCAUGCACCUGGUAGCUAGUCUUUAAACCAAUAGAUUGCAUCGGUUUAAAAGGCAAGACCGUCAAAUUGCGGGAAAGGGGUCAACAGCCGUUCAGUACCAAGUCUCAGGGGAAACUUUGAGAUGGCCUUGCAAAGGGUAUGGUAAUAAGCUGACGGACAUGGUCCUAACCACGCAGCCAAGUCCUAAGUCAACAGAUCUUCUGUUGAUAUGGAUGCAGUUCACAGACUAAAUGUCGGUCGGGGAAGAUGUAUUCUUCUCAUAAGAUAUAGUCGGACCUCUCCUUAAUGGGAGCUAGCGGAUGAAGUGAUGCAACACUGGAGCCGCUGGGAACUAAUUUGUAUGCGAAAGUAUAUUGAUUAGUUUUGGAGUACUCGUGGUCG
Summary of the method: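 Library with all eight P1ex-region intron nucleotides randomised, intron inside the knt kanamycin-resistance gene on pET-22b(+), in E. coli BL21(DE3). Cells grew overnight at 37°C or 30°C on LB agar with or without 25 μg/mL kanamycin (plus 100 μg/mL carbenicillin, 50 μM IPTG, 0.2% rhamnose), in six replicate transformations. Pooled colonies were amplicon-sequenced on Illumina HiSeq 2500. DiMSum fitness is the error-weighted combination of wild-type-normalised replicate fold changes, kanamycin versus none.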

Sequence | self-splicing fitness (ln) (37 °C) | self-splicing fitness (ln) (30 °C)
GUGCAGCAAUAUUACGCCAG | -2.5 ± 0.62 | 
CGUGAGCAAUAUUACGCCAA | -3.37 ± 1 | 
CCGGAGCAAUAUUACGUCUU | -3.51 ± 0.6 | -5.88 ± 1
UAGGAGCAAUAUUACGAAGG | 0.928 ± 1.1 | 
UCUAAGCAAUAUUACGAAAA |  | -2.82 ± 0.55
UUUAAGCAAUAUUACGUCAC | -2.5 ± 0.54 | -3.03 ± 0.75
ACAGAGCAAUAUUACGGACC | -1.79 ± 1.2 | -4.6 ± 1
AUGCAGCAAUAUUACGGGAC | -2.74 ± 0.19 | -2.82 ± 0.17
UUCGAGCAAUAUUACGCUAU | -3.4 ± 1 | 
UCUAAGCAAUAUUACGCCGC | -3.38 ± 0.53 | -2.69 ± 0.29
CGCGAGCAAUAUUACGACUC | -1.14 ± 0.31 | -2.91 ± 1.1
UCCGAGCAAUAUUACGAACA | -1.74 ± 0.66 | 
CCACAGCAAUAUUACGUACC | -0.735 ± 0.5 | -3.7 ± 0.78
UAGGAGCAAUAUUACGAACC | -1.93 ± 0.66 | 
UUAAAGCAAUAUUACGGUCC |  | -3.06 ± 1.1
UCCUAGCAAUAUUACGCCCG |  | -3.38 ± 0.59
AAUUAGCAAUAUUACGAGUC |  | -5.29 ± 0.72
UUAGAGCAAUAUUACGAGGG |  | -4.08 ± 0.61
GAGUAGCAAUAUUACGUCGG | -2.26 ± 0.55 | 
CCUGAGCAAUAUUACGUCAC | -1.54 ± 0.31 | -3.46 ± 0.61
UGUCAGCAAUAUUACGUGUC |  | -5.42 ± 1
AUGUAGCAAUAUUACGUGUC | -2.81 ± 0.26 | -3.79 ± 0.31
UUCAAGCAAUAUUACGUAAC |  | -3.25 ± 0.53
CUAGAGCAAUAUUACGUUCU | -2.21 ± 0.22 | -3.79 ± 0.21

3 records drawn at random from those above, as already listed:
Sequence | self-splicing fitness (ln) (37 °C) | self-splicing fitness (ln) (30 °C)
UUCAAGCAAUAUUACGUAAC |  | -3.25 ± 0.53
AUGCAGCAAUAUUACGGGAC | -2.74 ± 0.19 | -2.82 ± 0.17
ACAGAGCAAUAUUACGGACC | -1.79 ± 1.2 | -4.6 ± 1

(listing goes on)

Sequence | self-splicing fitness (ln) (37 °C) | self-splicing fitness (ln) (30 °C)
UGAGAGCAAUAUUACGUCGC | -1.69 ± 1.2 | -2.4 ± 0.61
CCGGAGCAAUAUUACGCCAU |  | -3.06 ± 0.76
CUGUAGCAAUAUUACGGAGC |  | -3.5 ± 0.75
CCCCAGCAAUAUUACGAGAG | -2.05 ± 0.17 | -3.91 ± 0.23
CGGGAGCAAUAUUACGACGG | -0.65 ± 0.42 | -1.4 ± 0.23
GUAGAGCAAUAUUACGCUAU | -0.405 ± 0.77 | -2.44 ± 0.63
UAUUAGCAAUAUUACGCCCC | -4.43 ± 1 | -1.91 ± 0.78
CGAUAGCAAUAUUACGCGGC | -4.27 ± 1 | 
UGGGAGCAAUAUUACGUAAC | -3.75 ± 0.73 | 
ACGGAGCAAUAUUACGAGAA | -2.73 ± 0.54 | -3.26 ± 1
CGUUAGCAAUAUUACGACAG | -0.134 ± 0.15 | 0.473 ± 0.14
AAAGAGCAAUAUUACGCUCA |  | -2.88 ± 0.58
CUUAAGCAAUAUUACGGUAA |  | -3.28 ± 0.53
AGUCAGCAAUAUUACGGGUC | -1.43 ± 0.15 | -1.27 ± 0.11
UGGGAGCAAUAUUACGAGGA |  | -1.42 ± 0.56
CGGGAGCAAUAUUACGAAGC |  | -0.772 ± 0.7
GGGGAGCAAUAUUACGGGAC | -1.18 ± 0.92 | -1.1 ± 0.67
CCAUAGCAAUAUUACGCAGC |  | -4.03 ± 0.51
AGCAAGCAAUAUUACGCUGC | -3.1 ± 0.31 | -1.58 ± 0.2
GAACAGCAAUAUUACGGGGA | -0.774 ± 0.09 | -1.6 ± 0.087
GACGAGCAAUAUUACGGUUC |  | -2.65 ± 1.1
UUGGAGCAAUAUUACGAGCC | -1.07 ± 0.5 | -3.03 ± 0.77
CAUAAGCAAUAUUACGACCA |  | -3.58 ± 0.73
CAGCAGCAAUAUUACGUUCC |  | -4.84 ± 0.51

Sequence | self-splicing fitness (ln) (37 °C) | self-splicing fitness (ln) (30 °C)
UUCUAGCAAUAUUACGAGAC | -1.93 ± 0.57 | -4.17 ± 1.1
GCCUAGCAAUAUUACGCUGC |  | -4.85 ± 0.58
UCGCAGCAAUAUUACGAUAC | -2.76 ± 0.34 | -3.52 ± 0.46
GGACAGCAAUAUUACGGACA | -0.307 ± 0.11 | -0.509 ± 0.11
UGAUAGCAAUAUUACGCCGC | -1 ± 0.92 | 
UUCUAGCAAUAUUACGUGCC | -2.63 ± 1.1 | 
UCGGAGCAAUAUUACGGGUC | -2.52 ± 0.55 | -3.32 ± 0.53
UAGUAGCAAUAUUACGUGUC |  | -2.18 ± 0.59
ACUUAGCAAUAUUACGUUCG | -0.802 ± 0.18 | -1.52 ± 0.18
GCAAAGCAAUAUUACGCAGG | -2.02 ± 0.19 | -2.33 ± 0.13
GUUAAGCAAUAUUACGAGGU |  | -4.03 ± 0.6
CACGAGCAAUAUUACGAACC |  | -3.46 ± 1.1
GGGGAGCAAUAUUACGGGGA | -2.62 ± 0.76 | -1.12 ± 0.76
CUUUAGCAAUAUUACGGUCC |  | -3.49 ± 0.6
GUAGAGCAAUAUUACGACUG | -1.12 ± 0.24 | -1.22 ± 0.15
AGCGAGCAAUAUUACGCUUU |  | -5.09 ± 1
CUUUAGCAAUAUUACGUGCU |  | -3.03 ± 0.5
CGCGAGCAAUAUUACGCUCC | -2.64 ± 1.1 | -4.33 ± 1
AGGGAGCAAUAUUACGGACG | -1.84 ± 0.52 | -3.21 ± 1.1
CGGAAGCAAUAUUACGAUGC |  | -4.74 ± 0.73
AGUUAGCAAUAUUACGGUUU | -0.317 ± 0.1 | -0.98 ± 0.071
GUCCAGCAAUAUUACGUAAA | 0.338 ± 0.12 | -0.484 ± 0.081
AUCUAGCAAUAUUACGCGAU |  | -5.66 ± 0.71
AAAGAGCAAUAUUACGAUAC |  | -3.12 ± 1.1

Sequence | self-splicing fitness (ln) (37 °C) | self-splicing fitness (ln) (30 °C)
GUUUAGCAAUAUUACGAAUC |  | 1.34 ± 1.1
CCCUAGCAAUAUUACGGAUA |  | -4.48 ± 0.73
AGCUAGCAAUAUUACGACCC | -0.711 ± 0.51 | -0.116 ± 0.54
GGGAAGCAAUAUUACGCUUU | -3.1 ± 0.74 | 
UAAUAGCAAUAUUACGGAAA |  | -3.14 ± 0.61
UGGGAGCAAUAUUACGGUGG | -2.79 ± 1.1 | 
GCGAAGCAAUAUUACGUUGC |  | -3.67 ± 0.52
UCGGAGCAAUAUUACGAUCC | -1.83 ± 0.56 | -4.12 ± 0.73
GGGUAGCAAUAUUACGAGGU |  | -4.26 ± 1
UCGGAGCAAUAUUACGUGUA |  | -3.88 ± 0.6
CACUAGCAAUAUUACGUCGG | 0.0907 ± 0.1 | -1.25 ± 0.082
UGGUAGCAAUAUUACGAGGG |  | -4.45 ± 0.59
GACUAGCAAUAUUACGCUAU |  | -3.58 ± 0.53
UGGCAGCAAUAUUACGGCCA |  | -2.33 ± 0.87
GAUUAGCAAUAUUACGCCCG | -0.635 ± 0.57 | 
AGUAAGCAAUAUUACGUGAC |  | -4.51 ± 0.72
GCAUAGCAAUAUUACGCCGA |  | -4.01 ± 0.53
GUCUAGCAAUAUUACGCGUC | -0.0852 ± 0.1 | -2.18 ± 0.099
UGGAAGCAAUAUUACGAGGC | -2.48 ± 1.1 | 
CAAUAGCAAUAUUACGUUAC |  | -4.15 ± 0.51
CGGUAGCAAUAUUACGCAAA |  | -3.95 ± 0.61
GAGGAGCAAUAUUACGGACC |  | -3.34 ± 1
UAUAAGCAAUAUUACGAAGC | -2.63 ± 1.1 | -3.06 ± 1.1
